Source: patent publication US12006368
These are yes or no findings as the source states them, for the method shown. Some entries that bind do so weakly or less than the wild type.

Sequences of proteins named here, by UniProt entry; tags and fusion partners are left off. Residues count along the entry.
UniProt Q13467, residues 27-152: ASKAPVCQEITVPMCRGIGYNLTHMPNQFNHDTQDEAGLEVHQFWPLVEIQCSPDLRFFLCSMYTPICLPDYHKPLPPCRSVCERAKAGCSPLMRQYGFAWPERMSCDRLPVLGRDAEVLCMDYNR

T1: Frizzled 8 (human) (UniProt Q9H461)
T1 sequence (looked up): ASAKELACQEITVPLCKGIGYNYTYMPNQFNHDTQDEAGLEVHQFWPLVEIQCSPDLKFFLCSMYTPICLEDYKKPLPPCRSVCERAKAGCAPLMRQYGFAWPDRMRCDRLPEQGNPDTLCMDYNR

B1: 005S-H05 (Fab, V domains shown)
VH: QVQLVQSGAEVKKPGASVKVSCKASGYTFTSYYMHWVRQAPGQGLEWMGRINPNSGGTNYAQKFQGRVTMTRDTSTSTVYMELSSLRSEDTAVYYCARVPDFWSGYLDYWGQGTLVTVSS
VL: DIQMTQSPSSLSASVGDRVTITCRASQGISSALAWYQQKPGKAPKLLIYAASSLQSGVPSRFSGSGSGTDFTLTISSLQPEDFATYYCQQTYSMPITFGQGTRLEIKR
B2: 4A12 Fab (Fab, V domains shown)
VH: QVQLQQSGPELVKPGASVKLSCKASGYTFTNYDINWVKQRPGQGLEWIGWIYPRDGSTKYNEKFKGKATLTVDTSSSTAYMELHSLTSEDSAVYFCVRSAWGFAYWGQGTLVTVSA
VL: DIVMTQSHKFMSTSVGDRVSITCKASQDVGTAVAWYQQKPGQSPKLLIYWASTRHTGVPDRFTGSGSGTDFTLTINNVQSEDLADYFCQQYSTYPLTFGAGTKLELKR

Assays:
Frizzled 8 (human) = biological target: T1, Frizzled 8 (human); assay: phage ELISA on immobilized antigen (initial binding)
[1] = biological target: Fzd5 cysteine rich domain (CRD), C-terminally biotinylated (human) (UniProt Q13467); assay: summary in Table 3; method not given there
[2] = biological target: Fzd8 cysteine rich domain (CRD), C-terminally biotinylated (human) (UniProt Q9H461); assay: summary in Table 3; method not given there
[3] = biological target: Fzd5 cysteine rich domain (CRD), C-terminally biotinylated (human) (UniProt Q13467); assay: phage ELISA on immobilised antigen (Initial Binding)

Row | Binder | binding (Frizzled 8 (human)) | binding [1] | binding [2] | binding [3]
1 | B1 | binds | binds | binds | 
2 | B2 |  | binds |  | binds
